At least one compound was matched to its structure with a doubt left.
Test system: multi-resistant Staphylococcus aureus 18-206
Experiment: paper diffusion method drug sensitivity test
Assay type: cell-based
Details: summary of Table 1
Protocol: The antimicrobial efficacy was determined by a paper diffusion method drug sensitivity test.
Experimental strains: Staphylococcus aureus (SAU), multi-resistant Staphylococcus aureus 18-206. The experimental strain was identified by Huashan Hospital Affiliated to Fudan University (Institute of Antibiotic of Fudan University).
Drug sensitive paper: The drug sensitive paper is a special drug sensitive paper with a diameter of 6.35 mm and a water absorption of 0.02 mL. The control drug was cefazolin (30 μg/tablet); the test drugs were cassic acid (30 μg/tablet), cinnamyl alcohol (30 μg/tablet) and cinnamyl alcohol cassic acid ester (30 μg/tablet).
Reagents: LB agar medium, LA broth medium, 0.5% DMSO solution.
The experimental strains were inoculated in non-selective medium and placed in air at 37° C. for 24 h. Pick a single colony that grows well and inoculate it into broth medium, incubate at 35° C.±2° C. for 6 hours, and use LA broth medium to calibrate the concentration of the bacterial solution to 0.5 Mie turbidimetric tube (1.5×10^8 CFU/mL). A bacterial suspension is obtained.
Weigh the LB dry powder, sterilize at 103.4 Kpa, 121.3° C. high-pressure steam for 15 min, and then put it in a 40° C.-50° C. water bath. Place a sterile empty plate (inner diameter 9 cm) on the surface of the ultra-clean table water table, shake and shake LB, and then pour the plate. […]

O=C(O)c1cc(O)c2c(c1)C(=O)c1cccc(O)c1C2=O [Cassic acid]
inhibitory effect on drug-resistant bacteria (in words): weak inhibitory effect
